Percent effect of library compounds

By UniProt entry, the sequences of proteins in these tests, tags left out. Residues count along the entry.
UniProt Q8IDJ8, 1-583: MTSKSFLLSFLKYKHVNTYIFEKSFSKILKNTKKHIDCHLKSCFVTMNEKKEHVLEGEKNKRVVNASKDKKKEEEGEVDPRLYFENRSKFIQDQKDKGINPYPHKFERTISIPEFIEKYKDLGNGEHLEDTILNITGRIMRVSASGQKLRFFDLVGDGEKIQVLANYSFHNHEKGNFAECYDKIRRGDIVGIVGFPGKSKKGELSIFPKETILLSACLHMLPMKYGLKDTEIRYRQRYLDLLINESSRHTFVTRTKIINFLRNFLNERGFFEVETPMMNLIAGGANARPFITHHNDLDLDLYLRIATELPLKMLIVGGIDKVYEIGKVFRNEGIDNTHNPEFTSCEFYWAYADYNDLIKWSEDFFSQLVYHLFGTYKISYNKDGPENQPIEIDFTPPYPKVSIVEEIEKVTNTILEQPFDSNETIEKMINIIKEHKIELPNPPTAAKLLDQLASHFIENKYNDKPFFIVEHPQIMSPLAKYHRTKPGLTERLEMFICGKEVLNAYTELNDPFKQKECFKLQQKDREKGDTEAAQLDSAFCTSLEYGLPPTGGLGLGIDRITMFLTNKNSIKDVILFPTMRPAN

The filed quantity is “Percent Effect” (%). The record does not define 0% and 100%; most values in the screen are far below 50% and negative numbers occur (in some assays of this library far below -100). This is an unselected part of the compounds tested. Two or more numbers in one place are separate tests of the same structure; such repeats can differ widely. A dash means the value is not listed here; it may have been measured.

Toxoplasma: 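Assay of Toxoplasma gondii numbers, read through their beta-galactosidase reporter with a colour substrate. Compounds at 10 µM. Higher reads as fewer parasites (inferred from which compounds were picked for retests). Of about 67,000 compounds tested this way, about 260 (0.38%) reached 50% or more in at least one test.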
T. brucei: 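Whole-parasite assay of Trypanosoma brucei over 72 hours; the read-out is not stated. Tested at 30 µM. The record gives no direction; compounds that gave an IC50 in retests scored well above the rest, so higher reads as stronger inhibition. Values scatter widely below zero; nearly all retest evidence comes from the higher of the two concentrations used. About 64,000 compounds were tested under these conditions; 1.5% (about 940) showed 50% or more at least once.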
Leishmania in macrophages: 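Cell assay of Leishmania donovani living inside macrophages; the read-out is not stated. Compounds at 30 µM. Higher reads as stronger inhibition (inferred: compounds with an IC50 in retests scored well above the rest). Of about 69,000 compounds tested this way, about 1,000 (1.5%) reached 50% or more in at least one test.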
PfKRS1: 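Enzyme assay of the cytosolic lysyl-tRNA synthetase in 384-well plates, read by luminescence. Target: Lysine-tRNA ligase, Plasmodium falciparum 3D7 (UniProt Q8IDJ8). Tested at 30 µM. Direction is inferred from only a few compounds that gave an IC50; most scored high, so higher reads as stronger inhibition. Size under these conditions: about 69,000 compounds, about 49 of them at 50% or above in at least one test.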

SMILES	Toxoplasma	T. brucei	Leishmania in macrophages	PfKRS1
CN(Cc1ccccc1)C1(C(=O)O)Cc2ccccc2C1	-0.5507	-13.24	-6.745	7.253
O=C(O)C(F)(F)F.O=C(O)C(F)(F)F.[H][C@@]12CN(Cc3csc(C)n3)CCO[C@]1([H])CN(c1ccc(C)nn1)C2	-6.515	-33.26	24.68	-
Cc1nc(CN2CCc3ncnc(-c4ccsc4)c3CC2)cs1.O=C(O)C(F)(F)F	13.46	-20.97	54.86	-
COC1CCN(C(=O)Cn2nc(C)cc2C)CC1	-10.29	-36.71	31.78	9.517
CC(C)(C)OC(=O)Cn1nc(C2CC2)cc(C(F)(F)F)c1=O	-7.606	-28.39	6.763	0.5726
COc1ccc(S(=O)(=O)N2CCN(C)c3ncccc3C2)cc1.O=C(O)C(F)(F)F	-8.544	-1.958	39.16	-
Cn1nc(C(=O)NCc2ccccn2)c2c1CCS(=O)(=O)C2	-7.053	63.28	-1.622	8.968
COCC1CC2(CCN(c3cc(OC)ncn3)CC2)CN1C(C)C.O=C(O)C(F)(F)F (stereo not shown)	-0.6636	9.141	17.84	-
COc1ccc(C(=O)C2CCCN(c3cnccn3)C2)c(C)c1 (stereo not shown)	3.241	15.41	7.713	5.439
COCCC(=O)N[C@H]1CC[C@H](Nc2nccc(-c3ccncc3)n2)C1	3.122	-1.414	22.63 & 2.15	6.176
CSc1nc2cc(C)n(CC(=O)NC(C)C)c2c(=O)n1CC(C)C	-2.465	-6.741	8.707	2.666
CCCc1nc2c(c(C)c(C)n2CCN(C)C)c(N)c1CC	24.39	31.57	99.96	3.536
CCN(Cc1nccn1C)C(=O)c1ccc(NCCc2c[nH]cn2)nc1	-12.62	-	6.12	5
Cn1cc(-c2csc(N3CCN(c4nccs4)CC3)n2)cn1	-18.16	-22.19	24.75	1.908
Cc1cc(CN2CCN(C(=O)NCc3csc(C)n3)CC2)on1	-7.045	18.28	23.4	3.003
O=S(=O)(CC1CCCCO1)Nc1cc(F)ccc1-n1cccn1 (stereo not shown)	6.25	-2.389	1.622	1.224
Cc1cc(-c2cc(F)ccc2C(=O)O)nc(C2CCCCN2C(C)C)n1 (stereo not shown)	2.814	-6.41	16.75 & 0.04645	3.649
COc1ccnc(CN2CCC=C(C(C)NC(C)=O)C2)c1OC (stereo not shown)	14.1	-18.17	0.6737	6.034
CC(Nc1ccc(F)cc1)c1nnnn1-c1ccccc1 (stereo not shown)	14.74	-39.95	-44.39	-1.806
COCC1CC2(CCN(C(=O)c3ccco3)CC2)CN1C(C)C (stereo not shown)	-	-	-	4.635
Cc1ccc(CN2CCC3(CC2)CN(C(=O)c2cnccn2)CCO3)o1	-	-	-	-1.911
CNC(=O)CN1CCC(NC(=O)CC(C)CCc2ccccc2)CC1 (stereo not shown)	1.363	-42.99	11.98	1.369
CC(=O)NCCNC(=O)c1cnc(-c2ccc(C)cc2C)s1	-13.26	0.6191	0.4682	0.3458
CC(=O)Nc1nc(C)c(S(=O)(=O)NCCc2ccccn2)s1	-6.29	-11.04	5.578 & 29.76	3.351
Cc1nc(-c2cccs2)ccc1C(=O)N1CCN(CCO)CC1	-7.197	-14.63	7.571	4.124
CC(C(=O)Nc1ccnn1C(C)C)N1CCc2nn(C)c(=O)cc2C1 (stereo not shown)	13.15	-5.067	5.118	5.96
O=S(=O)(NC(CO)Cc1c[nH]c2ccccc12)c1cncc(F)c1 (stereo not shown)	3.242	-16.2	19.78	1.651
Cc1noc(C)c1CNC(=O)NCCOc1ccc(F)cc1F	-1.38	-16.45	2.546	5.722
O=C(O)C(F)(F)F.[H][C@]12CCC[C@@]1(COCC(=O)N1CCCC1)CN(C1CCC1)C2	-9.684	-61.71	6.231	-
O=C(NCC1CCOCC1)[C@@H]1C[C@@H]2[C@@H](CCN2Cc2ccoc2)O1	-	-	-	1.088
Cc1cnc(CNC(=O)[C@@H]2CC[C@@H]3[C@@H](CCN3Cc3ccco3)O2)cn1	-	-	-	6.44
COCCn1cc(C(=O)N2CCCC2c2ccc(F)cc2)ccc1=O (stereo not shown)	-14.69	-43.43	31.18	2.966
CC1(C)CC(CC(=O)N2CC(C)(C)[C@@](C)(O)C2)CC(C)(C)N1	-1.382	-13.98	4.377	-8.663
Cc1nc(N2CCOCC2)sc1C(=O)NCC(C)(C)N1CCCCC1	2.013	0.3108	21.98	-0.3995
Brc1cccc(-c2nnc(CNCCn3cccn3)o2)c1	10.49	-	24.13	-0.855
O=C(NCc1ccco1)[C@@]12CCO[C@@H]1CCN(Cc1nccs1)C2	-	-	-	7.803
Cc1ccc(C)c2c(C)c(C(=O)NCC[S+](C)[O-])[nH]c12 (stereo not shown)	-	-	10.06	3.138
CC(C)C(NC(=O)NCC1(CO)CC1)c1nnc2n1CCC2 (stereo not shown)	15.25	42.38	17.51	6.009
O=C1CC(c2cccnc2)C2(CCN(C(=O)N3CCOCC3)CC2)N1 (stereo not shown)	-14.21	-20.71	16.73	-0.1161
CNC(=O)[C@@H](C1CCCCC1)N1CCC[C@H]1C(=O)NCCN1CCCC1	-	-	-	0.4525
COCC(C)NC(=O)CN1CCC(CO)CC1 (stereo not shown)	-15.37	-11.47	31.84	-0.1059
Cc1ccc(CCNC(=O)CC2COCCN2S(=O)(=O)N(C)C)o1 (stereo not shown)	33.9	-98.51	-2.929	0.01175
CCc1ccc(CN2CCN(C(=O)C(C)C)[C@@H]3CS(=O)(=O)C[C@@H]32)cc1	-	-	-	16.69
Fc1ccc(CN2CCO[C@H]3[C@H](OCc4ccncc4)CC[C@@H]32)cc1	-	-	-	4.933

The last 6 entries again:

{"smiles": "O=C1CC(c2cccnc2)C2(CCN(C(=O)N3CCOCC3)CC2)N1", "stereo": "stereo not shown", "Toxoplasma": -14.21, "T. brucei": -20.71, "Leishmania in macrophages": 16.73, "PfKRS1": -0.1161}
{"smiles": "CNC(=O)[C@@H](C1CCCCC1)N1CCC[C@H]1C(=O)NCCN1CCCC1", "PfKRS1": 0.4525}
{"smiles": "COCC(C)NC(=O)CN1CCC(CO)CC1", "stereo": "stereo not shown", "Toxoplasma": -15.37, "T. brucei": -11.47, "Leishmania in macrophages": 31.84, "PfKRS1": -0.1059}
{"smiles": "Cc1ccc(CCNC(=O)CC2COCCN2S(=O)(=O)N(C)C)o1", "stereo": "stereo not shown", "Toxoplasma": 33.9, "T. brucei": -98.51, "Leishmania in macrophages": -2.929, "PfKRS1": 0.01175}
{"smiles": "CCc1ccc(CN2CCN(C(=O)C(C)C)[C@@H]3CS(=O)(=O)C[C@@H]32)cc1", "PfKRS1": 16.69}
{"smiles": "Fc1ccc(CN2CCO[C@H]3[C@H](OCc4ccncc4)CC[C@@H]32)cc1", "PfKRS1": 4.933}

Measurements from “University of Dundee, Small-Polar-MMV Screening Library” (2021), ChEMBL document CHEMBL3988442.